## Percent effect of library compounds

Amino acid sequences for entries named in this document (tags omitted). Residues count along the entry.
UniProt A4I591, 1-473: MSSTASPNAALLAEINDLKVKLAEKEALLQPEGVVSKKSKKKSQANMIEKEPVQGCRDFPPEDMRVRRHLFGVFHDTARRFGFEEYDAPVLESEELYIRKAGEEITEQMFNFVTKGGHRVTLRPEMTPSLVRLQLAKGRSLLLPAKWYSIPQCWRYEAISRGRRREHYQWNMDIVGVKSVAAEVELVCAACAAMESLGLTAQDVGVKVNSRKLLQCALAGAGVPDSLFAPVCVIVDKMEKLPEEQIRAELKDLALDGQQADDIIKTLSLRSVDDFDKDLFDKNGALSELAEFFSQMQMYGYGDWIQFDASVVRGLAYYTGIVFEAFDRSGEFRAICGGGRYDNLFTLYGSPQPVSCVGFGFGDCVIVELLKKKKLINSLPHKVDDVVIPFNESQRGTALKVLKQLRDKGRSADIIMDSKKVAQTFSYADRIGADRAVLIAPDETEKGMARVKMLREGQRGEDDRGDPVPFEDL
UniProt Q4DA54, 1-478: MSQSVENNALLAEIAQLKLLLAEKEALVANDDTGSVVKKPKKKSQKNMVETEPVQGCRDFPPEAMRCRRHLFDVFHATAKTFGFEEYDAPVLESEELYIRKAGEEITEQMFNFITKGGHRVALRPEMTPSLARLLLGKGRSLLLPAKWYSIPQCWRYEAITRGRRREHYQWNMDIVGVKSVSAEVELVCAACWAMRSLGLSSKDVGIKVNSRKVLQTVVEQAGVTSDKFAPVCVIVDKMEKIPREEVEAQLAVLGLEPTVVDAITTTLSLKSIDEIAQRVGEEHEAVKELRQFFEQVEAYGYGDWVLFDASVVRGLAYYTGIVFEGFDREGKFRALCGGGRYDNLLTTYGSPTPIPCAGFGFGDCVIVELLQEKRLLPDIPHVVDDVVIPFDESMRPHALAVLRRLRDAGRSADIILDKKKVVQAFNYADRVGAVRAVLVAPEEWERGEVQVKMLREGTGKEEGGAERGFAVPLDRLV
UniProt P9WPC5, whole entry: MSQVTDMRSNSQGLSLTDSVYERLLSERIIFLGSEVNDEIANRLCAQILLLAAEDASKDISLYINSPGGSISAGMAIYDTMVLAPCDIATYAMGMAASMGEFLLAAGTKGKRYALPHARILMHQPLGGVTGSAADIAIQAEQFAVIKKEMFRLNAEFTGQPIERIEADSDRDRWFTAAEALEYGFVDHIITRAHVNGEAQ
UniProt P9WPC3, whole entry partner: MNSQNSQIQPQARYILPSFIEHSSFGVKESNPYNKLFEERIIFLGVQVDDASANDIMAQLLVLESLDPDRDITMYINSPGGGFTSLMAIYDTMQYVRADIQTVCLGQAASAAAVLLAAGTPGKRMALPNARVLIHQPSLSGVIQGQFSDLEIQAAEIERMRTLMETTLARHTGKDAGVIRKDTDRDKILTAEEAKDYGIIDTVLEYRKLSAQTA

The values are deposited in ChEMBL (CHEMBL3988442, “University of Dundee, Small-Polar-MMV Screening Library” (2021)).

Each number is a percent effect as filed.
How 0% and 100% were set is not recorded. Most values in the screen are low, and negative values occur.
This is an unselected part of the compounds tested.

LiHisRS: 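Enzyme assay of histidyl-tRNA synthetase; the read-out is not stated. Target: Histidine-tRNA ligase, Leishmania infantum (UniProt A4I591). Tested at 30 µM. The record gives no direction; compounds that gave an IC50 in retests scored well above the rest, so higher reads as stronger inhibition. The assay is labelled LdHisRS but filed under L. infantum. Of about 69,000 compounds tested this way, about 410 (0.6%) reached 50% or more in at least one test.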
TcHisRS: 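Enzyme assay of histidyl-tRNA synthetase; the read-out is not stated. Target: Histidine-tRNA ligase, Trypanosoma cruzi CL Brener (UniProt Q4DA54). Compounds at 30 µM. Higher reads as stronger inhibition (inferred: compounds with an IC50 in retests scored well above the rest). About 69,000 compounds were tested under these conditions; 0.045% (about 31) showed 50% or more at least once.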
ClpP1P2: 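Protease assay of ClpP1P2, read by the AMC dye that it sets free. Target: ClpP1P2, Mycobacterium tuberculosis (UniProt P9WPC5 and UniProt P9WPC3). Tested at 50 µM. Higher reads as stronger inhibition, judged from the few compounds that gave an IC50. Most other retested compounds had strongly negative values. Of about 69,000 compounds tested this way, about 10 (0.015%) reached 50% or more in at least one test.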

Result for CC(C)C1=NOC(c2nc(-c3cccc(Cl)c3)no2)C1 (configuration not stated) was LiHisRS: 0%; TcHisRS: -3.59%; ClpP1P2: -7.602%.
Result for CC(C)CC(=O)N1CCC2(CC1)OC(C(N)=O)Cn1ccnc12 (configuration not stated) was LiHisRS: 10%; TcHisRS: 1.058%; ClpP1P2: -8.104%.
Result for CS(=O)(=O)Cc1ccc(C(=O)N2CCCC(n3cncn3)C2)o1 (configuration not stated) was LiHisRS: 12.39%; TcHisRS: 0.8772%; ClpP1P2: 9.085%.
Result for O=C(Cn1c(-c2ccco2)cc2cccnc21)N1CCCC1 was LiHisRS: 76.51%; TcHisRS: 23.71%; ClpP1P2: -80.08%.
Result for COc1cc2c(cc1OC)CN(Cc1ncccc1C(=O)O)CC2 was LiHisRS: 17.11%; TcHisRS: 4.433%; ClpP1P2: -26.14%.
Result for Cc1nc(C)n(CC2CCCCN2Cc2nnc(C3CC3)o2)n1 (configuration not stated) was LiHisRS: 5.479%; TcHisRS: 1.527%; ClpP1P2: -3.25%.
Result for Cc1nc(C2CCCN2C(=O)CCOCc2ccccc2)no1 (configuration not stated) was LiHisRS: 7.018%; TcHisRS: 1.433%; ClpP1P2: 21.35%.
Result for COc1ccc(Oc2cc(CN)ccn2)cc1 was LiHisRS: 32.53%; TcHisRS: 16.42%; ClpP1P2: 7.127%.
Result for Cc1cccc(CN2CCc3ncnc(N4CCCC4)c3CC2)n1 was LiHisRS: 24.47%; TcHisRS: 15.08%; ClpP1P2: 10.63%.
Result for O=C(c1cccnc1-n1cncn1)N1CCN(C2CCCC2)CC1 was LiHisRS: 26.03%; TcHisRS: 2.956%; ClpP1P2: 1.129%.
Result for CC(C)C1CN(C(=O)Nc2cnn(CC(F)F)c2)CCO1 (configuration not stated) was LiHisRS: 8.621%; TcHisRS: 0.5236%; ClpP1P2: 1.358%.
Result for CCN(CC)C(=O)CCc1nc(-c2cnn3c(C)cc(C)nc23)no1 was LiHisRS: 12.35%; TcHisRS: 4.294%; ClpP1P2: -5.698%.
Result for CC(C)CS(=O)(=O)CC(=O)NC1CCCCNC1=O (configuration not stated) was LiHisRS: 15.38%; TcHisRS: 5.143%; ClpP1P2: -6.987%.
Result for CCc1nc(C2CCCN2Cc2cnc(C)cn2)no1 (configuration not stated) was LiHisRS: 12.5%; TcHisRS: 6.916%; ClpP1P2: -16.57%.
Result for CC(NCCN1CCC(N(C)C)CC1)c1ccc(F)cc1N(C)C (configuration not stated) was LiHisRS: -1.299%; TcHisRS: 2.463%; ClpP1P2: 8.754%.
Result for Fc1cccc(CNCC2Cn3nncc3CO2)c1 (configuration not stated) was LiHisRS: 10%; TcHisRS: 1.149%; ClpP1P2: -5.139%.
Result for Cc1ccc(NC(=O)c2cc(S(=O)(=O)N3CCCCC3)c[nH]2)cc1F was LiHisRS: 6.796%; TcHisRS: 8.696%; ClpP1P2: 6.464%.
Result for CCC(C)(COc1ncccc1Cl)NCC(=O)Nc1ccc(Br)cn1 (configuration not stated) was LiHisRS: 18.07%; TcHisRS: 0%; ClpP1P2: -8.065%.
Result for CN(C1CCCN(c2ccccn2)C1)S(=O)(=O)N1CCOCC1 (configuration not stated) was LiHisRS: 5.797%; TcHisRS: 0.7576%; ClpP1P2: -9.378%.
Result for CCOCc1nc(N2CCCC2)sc1C(=O)NCCC(=O)OCC was LiHisRS: 12.33%; TcHisRS: 7%; ClpP1P2: -16.52%.
Result for C1CCC(CN2Cc3nnn(CC4CC4)c3C(COCC3CC3)C2)C1 (configuration not stated) was LiHisRS: 28.3%; TcHisRS: 8.889%; ClpP1P2: -3.012%.
Result for Cc1cnn(CC2CN(Cc3nc(C4CC4)no3)CCO2)c1 (configuration not stated) was LiHisRS: 6.25%; TcHisRS: 2.89%; ClpP1P2: -23.52%.
Result for CC(C)OCCCN(Cc1ccncc1)Cc1cccc(F)c1 was LiHisRS: -3.158%; TcHisRS: 13.43%; ClpP1P2: 4.726%.
Result for Cc1cccc(OCCNC(=O)C(C)S(=O)(=O)C2CCCC2)c1 (configuration not stated) was LiHisRS: 2.679%; TcHisRS: 8.621%; ClpP1P2: -15.43%.
Result for CCN1CCCC(c2c(-c3ccccc3)ncn2Cc2cccnc2)C1 (configuration not stated) was LiHisRS: 17.65%; TcHisRS: 3.704%; ClpP1P2: 3.252%.
Result for Cc1cc(CN2CCC(CNS(=O)(=O)c3c(C)noc3C)CC2)c(C)o1 was LiHisRS: 8.602%; TcHisRS: 4.663%; ClpP1P2: 5.655%.
Result for COc1cc(C2CC(=O)Nc3c2nc2n3CCCC2)ccc1O (configuration not stated) was LiHisRS: 22.35%; TcHisRS: 3.139%; ClpP1P2: -5.963%.
Result for CC(C)c1n[nH]c(C2CN(C(=O)CCc3cscn3)CCO2)n1 (configuration not stated) was LiHisRS: -5.505%; TcHisRS: 2.353%; ClpP1P2: -11.93%.
Result for c1cnn(CC2CN(Cc3ccc(-n4ccnc4)cc3)CCO2)c1 (configuration not stated) was LiHisRS: 10.11%; TcHisRS: 3.759%; ClpP1P2: -4.53%.
Result for CN(c1ncc(C(=O)Nc2ccccc2)c(N)n1)C1CCCCC1 was LiHisRS: 10.17%; TcHisRS: 12.2%; ClpP1P2: -5.74%.
Result for O=C(CN1CCN(C(=O)c2ccccc2)CC1)Nc1ccc(Br)cn1 was LiHisRS: 7.865%; TcHisRS: 4.663%; ClpP1P2: -9.344%.

For reference, 4 entries once more:

CN(c1ncc(C(=O)Nc2ccccc2)c(N)n1)C1CCCCC1 gave LiHisRS: 10.17%; TcHisRS: 12.2%; ClpP1P2: -5.74%.
CC(C)CC(=O)N1CCC2(CC1)OC(C(N)=O)Cn1ccnc12 (configuration not stated) gave LiHisRS: 10%; TcHisRS: 1.058%; ClpP1P2: -8.104%.
CC(C)c1n[nH]c(C2CN(C(=O)CCc3cscn3)CCO2)n1 (configuration not stated) gave LiHisRS: -5.505%; TcHisRS: 2.353%; ClpP1P2: -11.93%.
Cc1nc(C)n(CC2CCCCN2Cc2nnc(C3CC3)o2)n1 (configuration not stated) gave LiHisRS: 5.479%; TcHisRS: 1.527%; ClpP1P2: -3.25%.